{"source": "paper PMC6269477", "binders": {"B1": {"name": "FtsN (endogenous) (protein, UniProt P29131 1-319)", "chain": "MAQRDYVRRSQPAPSRRKKSTSRKKQRNLPAVSPAMVAIAAAVLVTFIGGLYFITHHKKEESETLQSQKVTGNGLPPKPEERWRYIKELESRQPGVRAPTEPSAGGEVKTPEQLTPEQRQLLEQMQADMRQQPTQLVEVPWNEQTPEQRQQTLQRQRQAQQLAEQQRLAQQSRTTEQSWQQQTRTSQAAPVQAQPRQSKPASSQQPYQDLLQTPAHTTAQSKPQQAAPVARAADAPKPTAEKKDERRWMVQCGSFRGAEQAETVRAQLAFEGFDSKITTNNGWNRVVIGPVKGKENADSTLNRLKMAGHTNCIRLAAGG"}}, "target": "ZipA (endogenous) (E. coli (endogenous in BW25113)) (UniProt P77173)", "experiment": "cross-linking + co-IP; wild-type BW25113 cells cross-linked with DSP; membrane extract (1% Triton X-100, 1 M NaCl) precipitated with antibodies against PBP1A, PBP1B, PBP3 or ZipA on protein G agarose; cross-link reversed, ZipA or FtsN detected by western blot", "note": "Results are given in words; binding and its absence hold for the method and conditions named. In cells and extracts the contact can be indirect.", "data": [{"binder": "B1", "values": [{"measurement": "binding", "value": "no binding"}]}]}
